The test concerns the target T1, full-length PDZD7 wild-type, N-terminal strep tag and C-terminal GFP (mouse) (UniProt E9Q9W7).
T1 sequence: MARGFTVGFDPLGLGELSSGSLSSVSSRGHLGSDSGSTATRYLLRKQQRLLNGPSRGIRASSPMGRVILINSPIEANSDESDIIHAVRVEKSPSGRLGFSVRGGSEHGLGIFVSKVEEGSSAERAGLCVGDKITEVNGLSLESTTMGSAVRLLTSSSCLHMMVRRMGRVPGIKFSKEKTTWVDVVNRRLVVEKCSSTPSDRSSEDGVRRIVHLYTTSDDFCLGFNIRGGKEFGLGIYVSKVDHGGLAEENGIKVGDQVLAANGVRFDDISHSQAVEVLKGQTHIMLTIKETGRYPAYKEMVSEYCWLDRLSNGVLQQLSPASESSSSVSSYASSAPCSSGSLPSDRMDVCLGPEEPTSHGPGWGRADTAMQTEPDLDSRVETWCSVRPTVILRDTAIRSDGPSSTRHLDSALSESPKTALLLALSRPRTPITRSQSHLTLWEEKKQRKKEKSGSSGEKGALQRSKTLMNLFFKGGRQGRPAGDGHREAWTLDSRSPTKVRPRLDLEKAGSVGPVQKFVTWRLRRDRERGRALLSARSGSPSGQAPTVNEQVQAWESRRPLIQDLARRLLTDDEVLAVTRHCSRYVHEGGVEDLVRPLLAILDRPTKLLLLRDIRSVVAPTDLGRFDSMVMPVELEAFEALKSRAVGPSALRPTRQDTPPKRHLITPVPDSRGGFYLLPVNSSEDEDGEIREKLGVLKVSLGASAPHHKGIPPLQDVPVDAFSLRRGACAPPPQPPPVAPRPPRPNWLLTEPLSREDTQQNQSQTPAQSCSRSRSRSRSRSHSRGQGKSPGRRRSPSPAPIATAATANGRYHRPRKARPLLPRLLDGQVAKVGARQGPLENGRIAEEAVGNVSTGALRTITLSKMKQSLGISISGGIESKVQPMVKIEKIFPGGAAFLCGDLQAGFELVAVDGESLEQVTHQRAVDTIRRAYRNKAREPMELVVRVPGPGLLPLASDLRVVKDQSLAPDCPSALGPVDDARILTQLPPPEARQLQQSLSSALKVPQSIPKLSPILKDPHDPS
The test can be described thus: pull-down; lysates of separately transfected HeLa cells mixed; PDZD7-GFP (bait) held on Dynabeads Protein G with coupled anti-GFP antibody, 1 h at 4°C; PBS Tween 0.01%, DDM 0.1%; ADGRV1 β (prey) detected by western blot. For orientation: In western blotting, separated proteins are transferred to a membrane and probed.

One molecule from paper PMC9274004, “Deciphering the Molecular Interaction Between the Adhesion G Protein-Coupled Receptor ADGRV1 and its PDZ-Containing Regulator PDZD7” (Frontiers in Molecular Biosciences, 2022) can be followed below.

No constants are given. Whether binding was seen depends on the method and setting. Binding seen in cells or lysates may run through a third protein. Some entries that bind do so weakly or less than the wild type. Tags and fused reporters may be left off the sequences shown.

B1: ADGRV1 β subunit (seven transmembrane segments and cytoplasmic domain) (domain or fragment, UniProt Q8VHN7 5884-6298)
chain: SVYAVYAQTDNSSSYNEAFFSAGLICISGLCLAVVSHMFCARHSMFAAKLLTHMMVASLGTQILFLASAYASPHLSEESCSAVAAVAHYLYLCQFSWMLIQSVNFWYVLVVSDEHTERRCLLFCLLSWGLPSFVVILLILILRGIYHRSMPQIYGLIHGDLCFIPNIYAALFTAALVPLMCLVVVFVVFIHAYQLKPQWKGYDDVFRGRTNAAEIPLILYLFALISMTWLWGGLHMAYGHFWMLVLFVIFNSLQGLYVFVVYFILHNQTCCPMKASYTVEMNGHPGPSTAFFTPGSGIPPAGEINKSTQNLINAMEEVPSDWERSSFQQTSQASPDLKTSPQNGASFPSSGGYGPGSLIADEESQEFDDLIFALKTGAGLSVSDNESGQGSQEGGTLTDSQIVELRRIPIADTHL
Regarding B1, the binding result was “binds”.
